Laboratory results taken from patent US11471558B2, “Polypeptide and hyaluronic acid coatings” (INSTITUT NATIONAL DE LA SANTE ET DE LA RECHERCHE MEDICALE …, priority 2016, dated 2022).
Some results were stated once for a whole list of compounds, not compound by compound.

tested on: S. aureus; assay: Minimal inhibitory concentration of PAR in solution; assay type: cell-based; conditions: 0.01 mg·mL−1
Procedure: Staphylococcus aureus (S. aureus, ATCC 25923) strains were used to assess the antibacterial properties of the test samples. Bacterial strain was cultured aerobically at 37° C. in a Mueller Hinton Broth (MHB) medium (Merck, Germany), pH 7.4. One colony was transferred to 10 mL of MHB medium and incubated at 37° C. for 20 h, to provide a final density of 10^6 CFU·mL^−1. To obtain bacteria in the mid logarithmic phase of growth, the absorbance at 620 nm of overnight culture was adjusted of 0.001.
In the following the inventors of the present invention wanted to further elucidate the underlying mechanism that confer to the coatings of the invention the strong inhibitory property on the surface and in the supernatant. As an example the (PAR30/HA)24 coating was further investigated. Accordingly, the minimal inhibitory concentration (MIC) of PAR in solution was determined using bacterial assay as described in Experimental Section. […] Finally for PAR at concentrations of 0.01 mg·mL^−1, inhibition of 100% was shown only for PAR30. Longer or shorter PAR chains (PAR10, PAR100 or PAR200) inhibits only partially (less than 40%) S. aureus growth. […] This reasoning is valid when PAR concentration values are expressed in mass (mg·mL^−1) thus it is related to the number of arginine monomers. However when the graph is plotted with concentrations in μM (and thus proportional in number of chains), which means that concentration is related to number of chains, different interpretation can be made. […] Moreover the MIC100 values obtained for PAR30, PAR100 or PAR200 ranges at very low concentrations (between 1 and 2 μM) which is remarkable when compared to well-known antimicrobial peptides (for example 30 μM for cateslytin with S. aureus, see Adv. Funct. Mater. 2013, 23, 4801-4809). PAR is thus a powerful candidate to fight against S. aureus.
FIG. 12: Graph with the Minimal inhibitory concentration (MIC100) of soluble PAR with 10, 30, 100 or 200 arginine residues. The Minimal inhibitory concentration (MIC100) leading to 100% inhibition of S. aureus were measured in solution. […]

| Substance | S. aureus growth inhibition by PAR in solution |
| --- | --- |
| poly-L-arginine [PAR200] | less than 40% |
| poly-L-arginine [PAR100] | less than 40% |
| poly-L-arginine [PAR10] | less than 40% |
